Experimental findings from publication PMC9820316, “Novel Arylpiperazine Derivatives of Salicylamide with α1-Adrenolytic Properties Showed Antiarrhythmic and Hypotensive Properties in Rats” (International Journal of Molecular Sciences, 2022) are described below.

In this data set the test system is normotensive rats. The data set is described as follows: Influence on blood pressure in the normotensive rats. The data set is classed as in vivo, rat. Conditions: lowest hypotensive dose vs ED50 in adrenaline-induced arrhythmia. The protocol:
The experiment was performed according to the method described earlier. Normotensive Wistar rats were anesthetized with thiopental (75 mg/kg ip). The right carotid artery was cannulated with a polyethylene tube filled with heparin solution, using a Datamax apparatus (Columbus Instruments, Columbus, OH, USA). After 15 min of the stabilization period, the studied compounds were administered iv, and their effect on systolic and diastolic blood pressure was evaluated (Figure 4A).

As for `Cl.NC(=O)c1ccccc1OCCCCN1CCN(c2cccc(Cl)c2)CC1` [JJGW01, 2-{4-[4-(3-chlorophenyl)piperazin-1-ylo]butoxy}benzamide hydrochloride], the “dose lowering blood pressure relative to the ED50 value for antiarrhythmic effect” value is 10 fold.
